Assay results taken from PubChem BioAssay AID1347076 (National Center for Advancing Translational Sciences (NCATS), 2019).
Hit rate of the full screen: of about 400,000 compounds, about 13,000 (3.2%) were called active. The shares of active, inactive and inconclusive entries below differ from those in the screen. Calls come from the whole dose curve; as a rule, active = well fitted cell-killing curve with a large enough effect; inconclusive = small, poorly fitted or top-dose-only effect, or effect the other way; inactive = flat fitted curve, though single readings scatter. Where the call is inconclusive, the potency comes from a doubtful curve fit.
% is set by controls: 0 for no effect and ±100 for the full control effect; potency is the fitted concentration of half-maximal effect.

Test: qHTS assay for MDR1-selective chemotherapeutics: Primary screen using the drug-selected MDR subline cells KB-V1; note: nearly all actives have a fitted effect of over 60% in size
Details: KB-V1 MDR cells viability, CellTiter-Glo, 72 h; activity change, negative = cytotoxicity: at 46.1 µM (top of the series)
How it was run: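 Potencies derive from concentration-effect curves fitted to normalized luminescence (CellTiter-Glo) of KB-V1 cells treated for 72 h at 37 degrees C in phenol-red-free DMEM containing 10% FBS.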
In the case of `O=C(O)C1Cc2[nH]cnc2C(c2ccccc2O)N1` (centres undefined), the Potency is reported as “inactive”.
For `COc1ccc(NC(=O)COC(=O)Cn2cnc3ccccc32)cc1`, the Potency was “inactive”.
For `O=C(c1ccccc1)C1Oc2ccccc2C2CC(c3cccs3)=NN12` (centres undefined), the Potency was inconclusive: 14.6 µM [cytotoxic, single point].
For `CCCCCCSc1ccc(-c2nc3ccc(C)cn3c2NCCCC)cc1OC`, the Potency was active: 20.6 µM.
With `Cc1ccc(Sc2ccc(N)cn2)cc1` the Potency was “inactive”.
In the case of `CC(=O)Nc1ccc(NC(=O)CSc2nncn2C)cc1`, the Potency is reported as inconclusive: 20.6 µM [rising, single point].
For `Cc1cccc(C)c1NC(=O)CSc1nnnn1-c1ccc(C(=O)O)cc1`, the Potency was “inactive”.
In the case of `CCc1cccc(NC(=O)CCCn2c(=O)[nH]c3ccsc3c2=O)c1`, the Potency is reported as inconclusive: 29.1 µM [rising, single point].
In the case of `CC(C)[C@H](NC(=O)c1ccccc1Cl)C(=O)NC1CCCCCC1`, the Potency is reported as inconclusive: 5.8 µM [cytotoxic, full curve].
With `Cc1c(C(=O)NCCN2CCOCC2)sc2nc(-c3ccc(F)cc3)cn12` the Potency was inconclusive: 16.4 µM [cytotoxic, partial curve].
With `Cc1cccc(CCNC(=O)C2CCC(CNS(=O)(=O)c3cccs3)CC2)c1` (centres undefined) the Potency was inconclusive: 5.8 µM [cytotoxic, partial curve].
In the case of `CCCCCCOc1ccc(C(=O)O)cc1`, the Potency is reported as “inactive”.
In the case of `CCCc1nc2oc3c(=O)[nH]cnc3c2c2c1COC(C)(C)C2`, the Potency is reported as inconclusive: 1.84 µM [rising, full curve, poor fit].
For `Cc1csc(NC(=O)CN2C(=O)c3ccccc3S2(=O)=O)n1`, the Potency was inconclusive: 0.184 µM [rising, full curve].
In the case of `Cc1noc(C)c1COc1ccccc1C(=O)NCCc1ccc(Cl)cc1`, the Potency is reported as inconclusive: 9.2 µM [cytotoxic, partial curve].
For `Cc1ccc(S(=O)(=O)N2CCOC23CCN(S(=O)(=O)c2cccs2)CC3)cc1`, the Potency was inconclusive: 18.4 µM [cytotoxic, single point].
For `Cc1ccc(OC(=O)CSc2nnc(CNC(=O)c3ccccc3)o2)cc1`, the Potency was inconclusive: 7.31 µM [rising, partial curve].
With `COC(=O)c1c(NC(=O)CN2C(=O)c3ccccc3C2=O)sc(Cc2ccc3c(c2)OCO3)c1C` the Potency was “inactive”.
With `COc1ccc(Cl)cc1NC(=O)CN1CCc2ccccc21` the Potency was inconclusive: 23.1 µM [cytotoxic, single point].
In the case of `Cc1cc(Br)cc(Br)c1OCC(=O)NNC(=O)c1ccoc1C`, the Potency is reported as inconclusive: 13 µM [cytotoxic, partial curve, poor fit].
In the case of `COc1ccc(CC(N)c2csc(Nc3ncccn3)n2)cc1` (centres undefined), the Potency is reported as “inactive”.
With `CSc1ncnc2c1ncn2CCCN1CCN(Cc2c(C)cc(C)cc2C)CC1` the Potency was inconclusive: 11.6 µM [cytotoxic, partial curve, poor fit].
In the case of `Cc1nc(NCc2cccnc2)c2c3c(sc2n1)CCCC3`, the Potency is reported as inconclusive: 20.6 µM [cytotoxic, partial curve].
With `O=C1CSC(c2cn(-c3ccccc3)nc2-c2cc3ccccc3oc2=O)N1Cc1ccco1` (centres undefined) the Potency was inconclusive: 23.1 µM [cytotoxic, partial curve].
With `COc1cccc(C2(c3cccc(OC)c3)CC2C(=O)Nc2ccccc2Cl)c1` (centres undefined) the Potency was inconclusive: 20.6 µM [cytotoxic, single point].
For `CC(OC(=O)c1ccc(Cl)nc1)C(=O)Nc1ccc(S(=O)(=O)N2CCCC2)cc1` (centres undefined), the Potency was inconclusive: 20.6 µM [cytotoxic, partial curve].
For `Oc1c(CN2CCN(c3ccccn3)CC2)cc(Cl)c2cccnc12`, the Potency was active: 5.17 µM.
In the case of `CC(C)CCn1c(O)c(N=NC(=O)c2ccco2)c2ccccc21`, the Potency is reported as active: 13 µM.
In the case of `N#CCCN/N=C(\Cc1nc2ccccc2[nH]1)c1ccccc1`, the Potency is reported as “inactive”.
With `Cc1ccccc1OCCC(=O)Nc1ccccc1C(=O)N1CCCCC1` the Potency was active: 8.2 µM.
For `CN(C)S(=O)(=O)c1ccc(C(=O)/C=C/c2cccnc2)cc1`, the Potency was inconclusive: 29.1 µM [cytotoxic, single point].
For `C/C(=N\NC(=O)c1ccccc1-n1cccc1)c1ccccn1`, the Potency was “inactive”.
In the case of `CCN(CC(=O)Nc1ccc(OC)cc1)C(=O)c1cc(-c2cccs2)nn1-c1ccccc1`, the Potency is reported as active: 20.6 µM.
For `CCOc1ccc(N=Cc2c(C)[nH]n(-c3nc4ccccc4[nH]3)c2=O)cc1`, the Potency was inconclusive: 25.9 µM [cytotoxic, partial curve, poor fit].
With `Cc1c(C(=O)NCCN(C)C)sc2nc3n(c(=O)c12)CCC3` the Potency was “inactive”.
In the case of `O=C(NC1CCN(Cc2ccccc2)CC1)c1ccccc1Cl`, the Potency is reported as “inactive”.
For `CCOC(=O)c1nnc2c(-c3ccc(Cl)cc3)c(C)nn2c1C`, the Potency was inconclusive: 0.0073 µM [cytotoxic, full curve, poor fit].
In the case of `COc1cc(OC)cc(N(C(=O)CNC(=O)c2cccs2)C(C(=O)NCC2CCCO2)c2ccccc2)c1` (centres undefined), the Potency is reported as “inactive”.
With `Cc1nn(CC(C)C)c(Cl)c1C(=O)N(c1ccc(Cl)cc1F)S(C)(=O)=O` the Potency was inconclusive: 29.1 µM [cytotoxic, single point].
In the case of `CCOC(=O)CNS(=O)(=O)c1ccc2c3c(cccc13)C(=O)N2CC`, the Potency is reported as “inactive”.
With `O=C(Nc1cccc(S(=O)(=O)Nc2ccc(Cl)cc2)c1)c1ccc(Cl)nc1` the Potency was “inactive”.
For `CCOC(=O)CC1C(=O)NCCN1c1nc2c(C)cccn2c(=O)c1/C=C1\SC(=S)N(C(C)CC)C1=O` (centres undefined), the Potency was inconclusive: 10.3 µM [cytotoxic, partial curve, poor fit].
With `O=C(O)CSc1ncccn1` the Potency was inconclusive: 29.1 µM [rising, single point].
With `Cc1ccc(-c2nc3c(C)cc(Br)cn3c2Cc2ccccc2)cc1` the Potency was “inactive”.
In the case of `O=C(CCn1c(=O)oc2ccccc21)NCCCN1CCOCC1`, the Potency is reported as inconclusive: 29.1 µM [rising, single point].
For `COc1ccc(Cn2c(CO)cnc2SCC(=O)Nc2cccc(NC(C)=O)c2)cc1`, the Potency was inconclusive: 0.411 µM [rising, partial curve, poor fit].
With `Cc1ccc(S(=O)(=O)N2CCC(C(=O)NCCCN3CCOCC3)CC2)cc1` the Potency was inconclusive: 29.1 µM [cytotoxic, single point].
For `COc1ccc(C(=O)Nc2cccc(C(=O)N3CCCCC3)c2)cc1`, the Potency was inconclusive: 23.1 µM [cytotoxic, single point].
With `Cc1ccc2c(c1)c(=O)c1ccccc1n2CCCC(=O)Nc1c(F)cccc1F` the Potency was “inactive”.
In the case of `COc1ccc(Cl)cc1N(CC(=O)NC1CC2CCC1C2)S(=O)(=O)c1ccccc1` (centres undefined), the activity change, negative = cytotoxicity is reported as inconclusive: -18.4%.
For `CC(=O)Nc1ccc(C(=O)OCC(=O)N(c2ccccc2)C2CCCCC2)cc1`, the Potency was “inactive”.
With `Cn1c(-c2ccccc2)cnc1NCc1ccccc1` the Potency was inconclusive: 16.4 µM [cytotoxic, single point].
With `CCOC(=O)Cn1nnnc1C(C(C)C)N(Cc1cc2c(C)cc(C)cc2[nH]c1=O)C1CCCC1` (centres undefined) the Potency was “inactive”.
For `COc1ccc(-c2cc(NC=O)c3ncc(-c4cccc(C(F)(F)F)c4)n3c2)c(OC)c1`, the Potency was inconclusive: 7.31 µM [cytotoxic, partial curve].
For `CCOC(=O)c1c(N)sc(=S)c2c1CCC2`, the Potency was inconclusive: 29.1 µM [cytotoxic, single point].
For `Cc1cccc(Cn2c(SCc3ccc(C(=O)NC4CCCCC4)cc3)nc3ccncc32)c1`, the Potency was “inactive”.
In the case of `O=[N+]([O-])c1ccc(N2CCN(c3cccc(Cl)c3)CC2)cn1`, the Potency is reported as “inactive”.
In the case of `C=CCN1CCc2c(cc(O)c(O)c2Br)[C@@H](c2ccccc2)C1`, the Potency is reported as inconclusive: 5.8 µM [cytotoxic, full curve, poor fit].
With `COc1ccc(-n2nc(C(=O)Nc3ccc4c(c3)OCO4)c3c4ccccc4n(C)c3c2=O)cc1` the Potency was “inactive”.
With `Cn1c(COc2ccccc2)nnc1SCC(=O)Nc1nnc(C2CC2)s1` the Potency was inconclusive: 18.4 µM [rising, single point].
With `Nc1nc(N)c2c(OCc3ccc(C(F)(F)F)cc3)cccc2n1` the Potency was “inactive”.
For `CCOC(=O)c1cnc2ccc(OCC)cc2c1N(C)Cc1ccccc1`, the Potency was inconclusive: 5.17 µM [cytotoxic, partial curve].
For `CCOC(=O)c1ccc(N2C(=O)c3n[nH]c(-c4cccs4)c3C2c2ccc(Cl)cc2Cl)cc1` (centres undefined), the Potency was inconclusive: 29.1 µM [cytotoxic, single point].
For `O=C(COc1cccc2ccccc12)N1CCN(c2ccccc2)CC1`, the Potency was inconclusive: 20.6 µM [cytotoxic, single point].
In the case of `Cc1ccc(NNC(=O)c2ccno2)c(C)c1`, the Potency is reported as “inactive”.
With `O=C(Nc1ccc(Cl)cc1)Nc1ccc(N2CCCC2)c(S(=O)(=O)Nc2ccccc2Cl)c1` the Potency was inconclusive: 29.1 µM [cytotoxic, single point].
In the case of `CC(CNC(=O)CCCn1c(=O)c2cccn2c2cccnc21)c1ccccc1` (centres undefined), the Potency is reported as inconclusive: 7.31 µM [cytotoxic, partial curve].
For `O=C1CCC([N+](=O)[O-])C(c2cccc(Br)c2)N1` (centres undefined), the Potency was inconclusive: 0.326 µM [rising, full curve].
With `COc1ccccc1N1CCN(C(=O)COc2ccc(Cl)cc2Br)CC1` the Potency was inconclusive: 29.1 µM [cytotoxic, single point].
For `Cc1ccc(/C=C2/SC(=S)N(CCC(=O)N3CCN(C)CC3)C2=O)cc1`, the Potency was “inactive”.
With `COc1cc(/C=N/n2cnnc2)ccc1OCc1ccccc1` the Potency was inconclusive: 29.1 µM [cytotoxic, single point].
In the case of `COc1ccc2c(c1)nc(SCC(=O)c1cccs1)n2C`, the Potency is reported as “inactive”.
In the case of `CCOC(=O)CC(=O)CSc1nc(-c2cccnc2)ccc1C#N`, the Potency is reported as “inactive”.
With `Cc1ccccc1Nc1c(-c2ccncc2)nc2ccc(Cl)cn12` the Potency was “inactive”.
